In the supplement of paper PMC10849652:
The list shows a part of the results.

By UniProt entry, the sequences of proteins in these tests, tags left out. Where a name states a change or a piece, a line headed by the entry shows the natural chain unless it says otherwise.
UniProt Q7Z4S6: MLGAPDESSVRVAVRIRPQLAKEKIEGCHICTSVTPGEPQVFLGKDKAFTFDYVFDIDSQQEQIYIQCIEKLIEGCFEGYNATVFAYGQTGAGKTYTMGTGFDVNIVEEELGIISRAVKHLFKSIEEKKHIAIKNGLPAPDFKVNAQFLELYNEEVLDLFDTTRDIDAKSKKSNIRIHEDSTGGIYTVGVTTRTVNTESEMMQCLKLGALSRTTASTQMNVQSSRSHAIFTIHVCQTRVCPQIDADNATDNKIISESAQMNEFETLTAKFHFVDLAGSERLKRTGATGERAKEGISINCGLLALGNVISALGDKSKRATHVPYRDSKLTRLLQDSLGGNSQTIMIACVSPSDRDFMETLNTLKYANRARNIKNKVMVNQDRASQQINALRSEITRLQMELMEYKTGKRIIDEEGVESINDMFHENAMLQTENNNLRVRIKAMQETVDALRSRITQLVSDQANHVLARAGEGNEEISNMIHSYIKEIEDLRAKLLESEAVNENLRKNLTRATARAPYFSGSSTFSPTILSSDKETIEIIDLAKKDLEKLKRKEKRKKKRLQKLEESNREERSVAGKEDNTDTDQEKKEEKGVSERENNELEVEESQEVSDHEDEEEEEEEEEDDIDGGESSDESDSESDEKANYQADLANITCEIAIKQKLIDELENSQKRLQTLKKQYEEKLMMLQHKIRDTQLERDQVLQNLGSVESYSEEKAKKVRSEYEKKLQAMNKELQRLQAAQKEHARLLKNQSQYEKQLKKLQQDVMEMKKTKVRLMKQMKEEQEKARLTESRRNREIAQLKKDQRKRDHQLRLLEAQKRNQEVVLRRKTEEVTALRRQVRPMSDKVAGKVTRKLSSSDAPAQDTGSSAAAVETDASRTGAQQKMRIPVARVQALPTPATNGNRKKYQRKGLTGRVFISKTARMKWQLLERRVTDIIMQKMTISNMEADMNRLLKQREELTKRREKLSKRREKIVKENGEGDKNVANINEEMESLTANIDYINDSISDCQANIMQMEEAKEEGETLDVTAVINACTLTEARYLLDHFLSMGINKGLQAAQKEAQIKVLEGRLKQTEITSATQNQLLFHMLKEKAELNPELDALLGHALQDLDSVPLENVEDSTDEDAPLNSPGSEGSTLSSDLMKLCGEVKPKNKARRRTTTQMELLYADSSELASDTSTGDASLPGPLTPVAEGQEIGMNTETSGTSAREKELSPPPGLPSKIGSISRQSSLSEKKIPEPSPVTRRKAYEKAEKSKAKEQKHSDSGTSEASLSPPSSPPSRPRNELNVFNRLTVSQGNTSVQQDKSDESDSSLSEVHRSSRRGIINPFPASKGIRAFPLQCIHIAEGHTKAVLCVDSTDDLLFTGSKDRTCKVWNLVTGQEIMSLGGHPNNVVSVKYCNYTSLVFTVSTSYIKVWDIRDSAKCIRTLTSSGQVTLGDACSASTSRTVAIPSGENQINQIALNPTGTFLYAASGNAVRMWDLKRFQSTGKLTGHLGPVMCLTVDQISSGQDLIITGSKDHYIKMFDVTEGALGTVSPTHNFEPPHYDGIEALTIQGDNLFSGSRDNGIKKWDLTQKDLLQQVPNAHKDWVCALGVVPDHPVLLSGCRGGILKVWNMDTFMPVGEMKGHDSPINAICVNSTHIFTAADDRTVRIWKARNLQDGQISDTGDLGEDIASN
UniProt Q15058: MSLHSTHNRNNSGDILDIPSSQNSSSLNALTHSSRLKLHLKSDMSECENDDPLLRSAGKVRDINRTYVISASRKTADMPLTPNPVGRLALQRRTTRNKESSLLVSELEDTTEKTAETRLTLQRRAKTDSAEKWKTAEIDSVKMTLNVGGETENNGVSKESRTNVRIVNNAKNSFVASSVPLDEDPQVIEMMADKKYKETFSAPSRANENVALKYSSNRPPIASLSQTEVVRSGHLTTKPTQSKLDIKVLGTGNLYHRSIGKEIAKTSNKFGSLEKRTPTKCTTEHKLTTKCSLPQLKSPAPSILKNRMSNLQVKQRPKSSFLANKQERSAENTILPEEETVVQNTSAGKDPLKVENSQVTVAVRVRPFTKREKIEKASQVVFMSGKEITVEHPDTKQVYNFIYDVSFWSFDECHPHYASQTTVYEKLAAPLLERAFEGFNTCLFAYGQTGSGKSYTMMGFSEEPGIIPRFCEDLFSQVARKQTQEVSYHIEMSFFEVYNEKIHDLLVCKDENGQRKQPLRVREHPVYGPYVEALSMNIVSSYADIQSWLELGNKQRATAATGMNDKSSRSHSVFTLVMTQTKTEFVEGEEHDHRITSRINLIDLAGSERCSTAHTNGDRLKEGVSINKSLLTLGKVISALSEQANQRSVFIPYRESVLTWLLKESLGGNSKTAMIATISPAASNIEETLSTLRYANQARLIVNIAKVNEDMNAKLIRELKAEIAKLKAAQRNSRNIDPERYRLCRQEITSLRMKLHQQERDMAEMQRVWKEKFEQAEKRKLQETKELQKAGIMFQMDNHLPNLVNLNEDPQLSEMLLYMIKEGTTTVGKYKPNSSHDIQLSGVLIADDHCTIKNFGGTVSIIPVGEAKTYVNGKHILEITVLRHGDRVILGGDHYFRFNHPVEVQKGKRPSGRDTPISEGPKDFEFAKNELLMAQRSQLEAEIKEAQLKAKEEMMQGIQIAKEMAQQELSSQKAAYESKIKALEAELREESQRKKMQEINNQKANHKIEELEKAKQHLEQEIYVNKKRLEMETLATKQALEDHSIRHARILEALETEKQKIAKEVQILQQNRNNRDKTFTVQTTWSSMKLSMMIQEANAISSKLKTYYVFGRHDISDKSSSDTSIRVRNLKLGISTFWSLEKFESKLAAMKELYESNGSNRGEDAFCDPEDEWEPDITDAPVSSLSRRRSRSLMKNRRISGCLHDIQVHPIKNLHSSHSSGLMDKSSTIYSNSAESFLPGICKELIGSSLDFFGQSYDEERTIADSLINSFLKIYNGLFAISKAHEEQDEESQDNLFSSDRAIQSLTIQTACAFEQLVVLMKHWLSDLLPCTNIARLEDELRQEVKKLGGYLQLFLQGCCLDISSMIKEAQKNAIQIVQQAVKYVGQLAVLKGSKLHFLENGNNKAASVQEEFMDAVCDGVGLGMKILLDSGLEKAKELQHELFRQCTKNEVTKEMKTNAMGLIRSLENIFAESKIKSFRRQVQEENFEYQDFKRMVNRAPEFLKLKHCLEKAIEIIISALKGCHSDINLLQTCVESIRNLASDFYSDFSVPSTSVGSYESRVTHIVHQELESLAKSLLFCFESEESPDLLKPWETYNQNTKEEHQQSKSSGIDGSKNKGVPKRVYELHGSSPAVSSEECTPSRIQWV
UniProt Q96EK5: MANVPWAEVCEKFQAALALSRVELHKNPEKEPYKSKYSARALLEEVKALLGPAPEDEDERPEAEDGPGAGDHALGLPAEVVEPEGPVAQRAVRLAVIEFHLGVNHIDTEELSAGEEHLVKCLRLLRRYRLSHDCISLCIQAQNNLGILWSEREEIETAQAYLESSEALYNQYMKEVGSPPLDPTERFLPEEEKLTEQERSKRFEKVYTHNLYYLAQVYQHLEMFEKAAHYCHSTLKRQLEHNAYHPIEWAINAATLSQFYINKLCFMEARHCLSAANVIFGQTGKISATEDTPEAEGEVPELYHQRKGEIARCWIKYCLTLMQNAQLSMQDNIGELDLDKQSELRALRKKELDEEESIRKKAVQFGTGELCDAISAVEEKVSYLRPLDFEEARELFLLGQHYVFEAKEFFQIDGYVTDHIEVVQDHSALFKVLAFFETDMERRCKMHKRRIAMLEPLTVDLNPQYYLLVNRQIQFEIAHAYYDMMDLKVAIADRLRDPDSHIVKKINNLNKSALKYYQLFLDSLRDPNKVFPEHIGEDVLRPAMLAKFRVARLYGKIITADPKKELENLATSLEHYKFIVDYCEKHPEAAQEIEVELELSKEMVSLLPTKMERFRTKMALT
UniProt Q07866: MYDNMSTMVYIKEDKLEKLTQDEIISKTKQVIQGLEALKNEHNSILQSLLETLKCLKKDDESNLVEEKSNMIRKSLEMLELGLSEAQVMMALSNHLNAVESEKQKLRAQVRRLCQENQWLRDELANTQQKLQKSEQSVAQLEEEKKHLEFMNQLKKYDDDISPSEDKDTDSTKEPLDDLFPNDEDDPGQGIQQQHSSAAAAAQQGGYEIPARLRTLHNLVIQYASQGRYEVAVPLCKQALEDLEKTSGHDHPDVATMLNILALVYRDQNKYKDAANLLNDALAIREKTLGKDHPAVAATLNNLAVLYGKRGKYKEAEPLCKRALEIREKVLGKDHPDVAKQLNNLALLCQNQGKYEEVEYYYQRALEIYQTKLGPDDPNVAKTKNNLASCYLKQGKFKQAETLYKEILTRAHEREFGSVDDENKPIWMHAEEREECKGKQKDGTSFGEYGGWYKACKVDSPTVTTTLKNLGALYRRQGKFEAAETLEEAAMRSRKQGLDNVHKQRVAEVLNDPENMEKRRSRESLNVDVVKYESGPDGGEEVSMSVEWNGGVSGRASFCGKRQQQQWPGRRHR
UniProt Q16719: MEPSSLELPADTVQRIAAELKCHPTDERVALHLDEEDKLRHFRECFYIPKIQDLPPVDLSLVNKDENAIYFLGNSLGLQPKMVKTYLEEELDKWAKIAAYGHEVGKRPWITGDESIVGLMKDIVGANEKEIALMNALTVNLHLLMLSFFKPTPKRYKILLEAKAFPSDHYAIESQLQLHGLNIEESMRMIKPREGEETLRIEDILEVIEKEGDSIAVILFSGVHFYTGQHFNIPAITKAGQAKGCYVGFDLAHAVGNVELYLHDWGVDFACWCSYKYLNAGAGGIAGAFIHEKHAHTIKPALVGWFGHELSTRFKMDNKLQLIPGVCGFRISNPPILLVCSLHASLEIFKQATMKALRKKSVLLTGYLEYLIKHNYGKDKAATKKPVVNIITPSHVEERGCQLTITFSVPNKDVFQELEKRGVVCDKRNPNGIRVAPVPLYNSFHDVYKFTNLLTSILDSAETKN
UniProt O60268: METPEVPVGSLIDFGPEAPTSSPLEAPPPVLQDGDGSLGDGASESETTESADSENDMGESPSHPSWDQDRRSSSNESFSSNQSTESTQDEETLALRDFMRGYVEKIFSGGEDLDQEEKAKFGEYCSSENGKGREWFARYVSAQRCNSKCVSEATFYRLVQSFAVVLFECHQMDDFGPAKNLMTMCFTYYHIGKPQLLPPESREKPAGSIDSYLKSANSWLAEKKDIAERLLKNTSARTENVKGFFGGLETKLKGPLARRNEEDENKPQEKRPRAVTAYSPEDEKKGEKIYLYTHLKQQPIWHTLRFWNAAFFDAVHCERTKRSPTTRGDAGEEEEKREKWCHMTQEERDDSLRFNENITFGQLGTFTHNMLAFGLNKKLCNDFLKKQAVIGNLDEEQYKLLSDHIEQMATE
UniProt O15066: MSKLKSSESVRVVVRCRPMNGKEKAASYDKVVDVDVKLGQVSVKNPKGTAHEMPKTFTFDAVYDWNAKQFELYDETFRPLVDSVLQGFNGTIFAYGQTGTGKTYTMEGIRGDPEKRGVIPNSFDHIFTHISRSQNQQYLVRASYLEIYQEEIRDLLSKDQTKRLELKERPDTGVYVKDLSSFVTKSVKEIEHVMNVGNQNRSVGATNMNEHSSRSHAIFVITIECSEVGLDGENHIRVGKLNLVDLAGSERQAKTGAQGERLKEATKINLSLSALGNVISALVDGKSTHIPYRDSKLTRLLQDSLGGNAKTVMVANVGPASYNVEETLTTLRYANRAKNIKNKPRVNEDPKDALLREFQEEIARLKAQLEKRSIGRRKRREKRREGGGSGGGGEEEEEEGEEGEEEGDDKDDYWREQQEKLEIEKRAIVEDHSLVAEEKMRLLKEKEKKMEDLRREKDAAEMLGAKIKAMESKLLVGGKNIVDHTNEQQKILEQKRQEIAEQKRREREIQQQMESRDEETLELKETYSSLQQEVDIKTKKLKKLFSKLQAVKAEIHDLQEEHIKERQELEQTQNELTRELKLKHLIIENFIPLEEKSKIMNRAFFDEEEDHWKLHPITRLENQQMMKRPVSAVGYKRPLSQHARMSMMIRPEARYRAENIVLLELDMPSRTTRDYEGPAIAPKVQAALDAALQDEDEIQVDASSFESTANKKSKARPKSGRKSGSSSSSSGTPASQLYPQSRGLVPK

Tests used:
Experiment in all cases: log2 fold change, soluble protein after heating vs DMSO (PISA); higher = thermal stabilisation; K562 lysate, 10 uM; active = over 0.2 and 3.5 SD of the protein, either way, in both replicates (recomputed)
erlotinib = compound: C#Cc1cccc(Nc2ncnc3cc(OCCOC)c(OCCOC)cc23)c1 [erlotinib]
In short: (§1)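 Dounce homogenisation of K562 pellets in PBS pH 7.4 with 1 mM MgCl2 produced a crude extract, used at 1 mg/mL protein. Exposure to 10 μM compound lasted 30 min, and aliquots were then heated for 3 min across 48°C-58°C, pooled and brought to 0.5% NP-40 at 4°C. The supernatant after 21,000xg for 90 min was quantified by TMTpro 16plex LC-MS/MS with channel sums equalised. Duplicate values are given as log-two fold change in thermal stability relative to solvent controls.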

[1] = compound: C/C(=N\NC(=O)C1=CC(=CC=C1)S(=O)(=O)N2CCOCC2)/C3=C(C=CC(=C3)Cl)O
In short: as §1

[2] = compound: C1=CC(=CC=C1C2=NC3=C(N2)C=C(C=C3)C(=O)N)OC4=CC=C(C=C4)Cl
In short: as §1

[3] = compound: C1=CC2=C(C=CC(=C2)/C=C\3/C(=O)NC(=NCC4=CC=CS4)S3)N=C1
In short: as §1

[4] = compound: C1=CC2=NC=CN=C2C=C1/C=C/3\C(=O)NC(=O)S3
In short: as §1

[5] = compound: C1=CC=C(C=C1)C2=NC(=C(N2)C3=CC=NC=C3)C4=CC(=C(C=C4)Cl)O
In short: as §1

[6] = compound: C1=CC=C2C(=C1)C3=NNC4=CC=CC(=C43)C2=O
In short: as §1

[7] = compound: C1CCN(C1)C(=O)NC2=CC=CC(=C2)NC3=NC=C(C(=N3)NCCC4=CN=CN4)Br
In short: as §1

[8] = compound: C1CN(CCC1(CC2=CC=C(C=C2)Cl)N)C3=NC=NC4=C3C=CN4
In short: as §1

IRAK-1-4 Inhibitor I = compound: C1COCCN1CCN2C3=CC=CC=C3N=C2NC(=O)C4=CC(=CC=C4)[N+](=O)[O-] [IRAK-1-4 Inhibitor I]
In short: as §1

ibrutinib = compound: C=CC(=O)N1CCC[C@@H](n2nc(-c3ccc(Oc4ccccc4)cc3)c3c(N)ncnc32)C1 [ibrutinib]
In short: as §1

[9] = compound: CC(=O)c1cnc2ccc(-c3cc(Cl)c(O)c(Cl)c3)nc2c1N[C@H]1CC[C@H](CN(C)C)CC1
In short: as §1

ralimetinib = compound: CC(C)(C)Cn1c(N)nc2ccc(-c3[nH]c(C(C)(C)C)nc3-c3ccc(F)cc3)nc21 [ralimetinib]
In short: as §1

[10] = compound: CC(C)(O)CC(=O)NCCn1ccc2ncnc(Nc3ccc(Oc4cccc(C(F)(F)F)c4)c(Cl)c3)c21
In short: as §1

[11] = compound: CC(C)C1=C2N=C(C=C(N2N=C1)NCC3=CC=CC=C3)NCCCCCCN
In short: as §1

[12] = compound: CC1=C(C(CC(=O)N1)C2=CC=C(C=C2)C(F)(F)F)C(=O)NC3=C(C=C4C(=C3)C=NN4)F
In short: as §1

[13] = compound: CC1=C(C2=C(C=C1)C(=O)C3=CC=CC=C3N2CCCN)C
In short: as §1

[14] = compound: CC1=C(C=C(C=C1)NC(=O)C2=CC(=CC=C2)C(C)(C)C#N)NC3=CC4=C(C=C3)N=CN(C4=O)C
In short: as §1

[15] = compound: CC1=C(C=C(C=C1)NC(=O)C2=CC(=CC=C2)N(C)C)NC(=O)C3=CC=C(C=C3)O
In short: as §1

[16] = compound: CC1=CC=C(C=C1)SC2=C3C=C(SC3=CN=C2)C(=O)N
In short: as §1

Measured: log2 fold change

KIF21A isoform 5 (UniProt Q7Z4S6)
inactive: erlotinib -0.025 | [1] 0.022 | [2] -0.002 | [3] 0.01 | [4] -0.013 | [5] -0.016 | [6] -0.034 | [7] -0.009 | [8] 0.01 | IRAK-1-4 Inhibitor I -0.002 | ibrutinib 0.027 | [9] -0.002 | ralimetinib 0.015 | [10] 0 | [11] 0.002 | [12] 0.034 | [13] -0.031 | [14] 0.025 | [15] 0.014 | [16] 0.024

KIF14 (UniProt Q15058)
inactive: erlotinib 0.031 | [1] -0.06 | [2] 0.016 | [3] -0.04 | [4] -0.176 | [5] 0.01 | [6] -0.032 | [7] -0.002 | [8] 0.008 | IRAK-1-4 Inhibitor I -0.014 | ibrutinib 0.086 | [9] 0.024 | ralimetinib 0.002 | [10] 0.003 | [11] 0.017 | [12] 0.002 | [13] -0.011 | [14] 0.007 | [15] 0.041 | [16] -0.012

KIFBP (UniProt Q96EK5)
inactive: erlotinib -0.006 | [1] -0.021 | [2] -0.052 | [3] 0.042 | [4] 0.02 | [5] -0.018 | [6] -0.01 | [7] -0.003 | [8] -0.038 | IRAK-1-4 Inhibitor I -0.028 | ibrutinib 0.019 | [9] -0.009 | ralimetinib 0.048 | [10] 0.037 | [11] -0.019 | [12] -0.014 | [13] 0.022 | [14] -0.012 | [15] 0.015 | [16] 0.034

KLC1 isoform 6 (UniProt Q07866)
inactive: erlotinib -0.02 | [1] -0.023 | [2] 0.002 | [3] 0 | [4] -0.033 | [5] 0.002 | [6] -0.007 | [7] -0.027 | [8] -0.01 | IRAK-1-4 Inhibitor I 0.011 | ibrutinib -0.022 | [9] -0.012 | ralimetinib 0.019 | [10] 0.005 | [11] 0.002 | [12] -0.01 | [13] 0.012 | [14] 0.028 | [15] -0.002 | [16] -0.017

KYNU (UniProt Q16719)
inactive: erlotinib -0.016 | [1] 0.009 | [2] -0.058 | [3] 0.004 | [4] -0.002 | [5] -0.028 | [6] 0.011 | [7] -0.001 | [8] -0.018 | IRAK-1-4 Inhibitor I 0.014 | ibrutinib 0.046 | [9] 0.041 | ralimetinib 0.061 | [10] -0.055 | [11] 0.008 | [12] 0.048 | [13] 0.127 | [14] -0.029 | [15] -0.025 | [16] -0.025

KIAA0513 (UniProt O60268)
inactive: erlotinib 0.019 | [1] -0.03 | [2] 0.039 | [3] -0.009 | [4] -0.044 | [5] 0.089 | [6] -0.011 | [7] -0.034 | [8] 0.043 | IRAK-1-4 Inhibitor I 0.037 | ibrutinib 0.005 | [9] 0.004 | ralimetinib -0.047 | [10] -0.047 | [11] 0.003 | [12] 0.056 | [13] -0.019 | [14] 0.011 | [15] -0.01 | [16] -0.03

KIF3B (UniProt O15066)
inactive: erlotinib -0.024 | [1] 0.086 | [2] 0.065 | [3] 0.002 | [4] -0.058 | [5] 0.239 | [6] 0.037 | [7] 0.086 | [8] -0.003 | IRAK-1-4 Inhibitor I -0.058 | ibrutinib 0.068 | [9] 0.009 | ralimetinib 0.285 | [10] -0.04 | [11] -0.027 | [12] 0.015 | [14] -0.003 | [15] 0.019 | [16] 0.065

KNL1 (UniProt Q8NG31)
inactive: erlotinib -0.005 | [1] -0.015 | [2] 0.002 | [3] 0 | [4] -0.017 | [5] 0.019 | [6] -0.015 | [7] 0.006 | [8] -0.007 | IRAK-1-4 Inhibitor I 0.002 | ibrutinib 0.009 | [9] -0.014 | ralimetinib 0.012 | [10] -0.032 | [11] 0.013 | [12] 0.012 | [13] -0.022 | [14] 0 | [15] 0.004 | [16] 0.012
